# Reference: PubChem BioAssay AID720542 (National Center for Advancing Translational Sciences (NCATS), 2013)
# Out of some 360,000 compounds screened, about 740 (0.21%) were called active. The source calls these results inconclusive, neither active nor inactive. The call rests on the fitted dose curve; in most records, active means well fitted inhibition curve with a large enough effect; inconclusive means small, poorly fitted or top-dose-only effect; inactive means no such curve, though single readings can be large or run the other way.
# Test system: Plasmodium falciparum AMA1 (3D7) - RON2 peptide interaction
# Assay: qHTS for Inhibitors of AMA1-RON; Towards Development of Antimalarial Drug Lead: Primary Screen; further: nearly all actives have a fitted effect of over 45% in size
# Details: AlphaScreen AMA1-biotinylated RON2 peptide binding
# Potency means the concentration at half of the fitted maximal effect.
row,SMILES,Potency
1,CCN1CCC(Nc2cccc(F)c2)CC1,inconclusive: 28.2 µM
2,CC(C)c1ccc(NC2CCN(C(=O)OC(C)(C)C)CC2)cc1,inconclusive: 7.08 µM
